Reference: the supplement of paper PMC7666118
The other results are listed elsewhere or left out.

The chains behind the UniProt entries cited, without tags or fusion partners. Where a name states a change or a piece, a line headed by the entry shows the natural chain unless it says otherwise.
UniProt Q96PY5, whole entry: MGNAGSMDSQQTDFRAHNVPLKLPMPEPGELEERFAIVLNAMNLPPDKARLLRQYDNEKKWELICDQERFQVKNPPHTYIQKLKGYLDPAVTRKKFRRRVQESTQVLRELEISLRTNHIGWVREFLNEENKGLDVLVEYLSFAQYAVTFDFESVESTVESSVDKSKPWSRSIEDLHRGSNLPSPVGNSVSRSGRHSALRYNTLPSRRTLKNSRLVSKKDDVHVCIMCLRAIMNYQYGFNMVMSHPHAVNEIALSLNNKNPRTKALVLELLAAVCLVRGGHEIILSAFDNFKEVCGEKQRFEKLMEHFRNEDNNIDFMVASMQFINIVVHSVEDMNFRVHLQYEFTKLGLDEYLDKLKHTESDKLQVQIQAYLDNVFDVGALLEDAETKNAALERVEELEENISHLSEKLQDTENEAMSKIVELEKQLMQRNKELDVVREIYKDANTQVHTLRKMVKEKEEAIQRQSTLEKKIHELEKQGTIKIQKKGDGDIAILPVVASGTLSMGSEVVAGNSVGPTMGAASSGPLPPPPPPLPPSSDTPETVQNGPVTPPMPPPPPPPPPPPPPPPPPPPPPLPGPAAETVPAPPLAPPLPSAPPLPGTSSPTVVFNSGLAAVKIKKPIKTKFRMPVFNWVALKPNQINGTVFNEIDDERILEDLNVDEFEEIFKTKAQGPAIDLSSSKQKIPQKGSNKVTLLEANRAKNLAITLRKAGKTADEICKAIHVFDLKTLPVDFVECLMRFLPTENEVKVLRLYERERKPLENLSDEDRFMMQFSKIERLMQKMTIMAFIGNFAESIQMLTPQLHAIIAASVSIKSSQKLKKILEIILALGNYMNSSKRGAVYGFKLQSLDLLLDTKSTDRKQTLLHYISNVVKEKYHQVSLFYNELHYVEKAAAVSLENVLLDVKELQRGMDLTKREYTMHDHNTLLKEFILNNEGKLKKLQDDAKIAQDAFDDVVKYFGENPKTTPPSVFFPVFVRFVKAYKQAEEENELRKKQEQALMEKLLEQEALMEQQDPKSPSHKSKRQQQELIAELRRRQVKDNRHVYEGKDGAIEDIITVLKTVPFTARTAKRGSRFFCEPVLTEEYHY
UniProt Q9Y3D0: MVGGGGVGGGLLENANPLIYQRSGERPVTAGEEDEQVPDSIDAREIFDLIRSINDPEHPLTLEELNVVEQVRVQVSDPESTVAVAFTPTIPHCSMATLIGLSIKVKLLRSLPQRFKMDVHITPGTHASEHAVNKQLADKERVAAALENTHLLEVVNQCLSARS
UniProt Q9Y2K7: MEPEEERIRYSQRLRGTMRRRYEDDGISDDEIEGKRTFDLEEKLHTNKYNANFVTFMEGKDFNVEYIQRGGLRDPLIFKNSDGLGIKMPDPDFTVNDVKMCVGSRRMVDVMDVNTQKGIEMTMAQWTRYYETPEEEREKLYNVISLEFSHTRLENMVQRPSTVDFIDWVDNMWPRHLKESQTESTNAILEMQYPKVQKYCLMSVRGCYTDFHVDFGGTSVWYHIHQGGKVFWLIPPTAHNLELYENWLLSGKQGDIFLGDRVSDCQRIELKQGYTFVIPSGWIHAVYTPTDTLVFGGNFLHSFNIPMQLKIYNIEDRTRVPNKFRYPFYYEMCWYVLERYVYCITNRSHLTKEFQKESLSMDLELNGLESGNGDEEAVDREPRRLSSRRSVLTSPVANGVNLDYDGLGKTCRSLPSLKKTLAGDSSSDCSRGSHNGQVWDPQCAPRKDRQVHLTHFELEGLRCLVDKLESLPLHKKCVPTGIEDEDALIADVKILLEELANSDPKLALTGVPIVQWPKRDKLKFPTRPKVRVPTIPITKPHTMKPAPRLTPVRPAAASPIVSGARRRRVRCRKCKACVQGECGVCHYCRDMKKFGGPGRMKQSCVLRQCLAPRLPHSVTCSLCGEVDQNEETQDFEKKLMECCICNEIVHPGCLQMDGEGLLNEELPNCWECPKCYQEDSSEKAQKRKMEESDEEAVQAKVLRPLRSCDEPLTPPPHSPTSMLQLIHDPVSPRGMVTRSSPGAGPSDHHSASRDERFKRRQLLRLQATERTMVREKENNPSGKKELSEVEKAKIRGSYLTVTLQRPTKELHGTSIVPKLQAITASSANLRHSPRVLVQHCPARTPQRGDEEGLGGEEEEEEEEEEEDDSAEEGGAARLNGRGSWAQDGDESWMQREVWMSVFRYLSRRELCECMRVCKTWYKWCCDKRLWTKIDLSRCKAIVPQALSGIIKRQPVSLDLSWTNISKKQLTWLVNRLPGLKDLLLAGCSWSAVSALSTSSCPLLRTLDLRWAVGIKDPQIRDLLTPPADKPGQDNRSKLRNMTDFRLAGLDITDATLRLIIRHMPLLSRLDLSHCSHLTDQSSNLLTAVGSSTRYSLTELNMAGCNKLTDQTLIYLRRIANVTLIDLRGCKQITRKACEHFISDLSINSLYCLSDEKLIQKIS
UniProt Q8N3X1: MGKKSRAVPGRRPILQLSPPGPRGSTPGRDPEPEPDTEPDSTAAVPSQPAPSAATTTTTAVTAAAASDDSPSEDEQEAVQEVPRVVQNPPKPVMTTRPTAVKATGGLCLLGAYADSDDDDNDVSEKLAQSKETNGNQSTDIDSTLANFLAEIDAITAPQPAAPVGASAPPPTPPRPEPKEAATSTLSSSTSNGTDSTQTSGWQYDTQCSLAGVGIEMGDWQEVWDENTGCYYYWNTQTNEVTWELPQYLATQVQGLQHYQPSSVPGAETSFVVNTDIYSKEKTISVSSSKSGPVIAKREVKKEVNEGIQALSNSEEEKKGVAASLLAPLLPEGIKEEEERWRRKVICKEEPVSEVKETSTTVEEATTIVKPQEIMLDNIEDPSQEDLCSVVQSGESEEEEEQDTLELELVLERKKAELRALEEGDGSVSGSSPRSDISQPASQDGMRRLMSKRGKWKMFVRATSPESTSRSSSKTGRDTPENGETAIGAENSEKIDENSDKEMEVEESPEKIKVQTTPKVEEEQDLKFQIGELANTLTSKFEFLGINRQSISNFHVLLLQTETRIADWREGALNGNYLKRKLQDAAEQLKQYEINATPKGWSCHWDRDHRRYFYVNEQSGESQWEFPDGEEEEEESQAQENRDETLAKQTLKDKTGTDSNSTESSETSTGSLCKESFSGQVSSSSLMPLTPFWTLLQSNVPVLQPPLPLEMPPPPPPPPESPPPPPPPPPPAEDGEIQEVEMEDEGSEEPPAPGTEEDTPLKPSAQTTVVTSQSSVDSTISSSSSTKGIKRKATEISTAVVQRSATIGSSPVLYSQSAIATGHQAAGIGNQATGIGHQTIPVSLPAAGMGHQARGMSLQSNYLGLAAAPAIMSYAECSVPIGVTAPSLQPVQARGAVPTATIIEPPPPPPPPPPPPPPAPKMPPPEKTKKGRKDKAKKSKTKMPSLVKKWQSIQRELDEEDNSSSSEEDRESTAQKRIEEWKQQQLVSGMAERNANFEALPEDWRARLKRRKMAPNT
UniProt Q9HBU6: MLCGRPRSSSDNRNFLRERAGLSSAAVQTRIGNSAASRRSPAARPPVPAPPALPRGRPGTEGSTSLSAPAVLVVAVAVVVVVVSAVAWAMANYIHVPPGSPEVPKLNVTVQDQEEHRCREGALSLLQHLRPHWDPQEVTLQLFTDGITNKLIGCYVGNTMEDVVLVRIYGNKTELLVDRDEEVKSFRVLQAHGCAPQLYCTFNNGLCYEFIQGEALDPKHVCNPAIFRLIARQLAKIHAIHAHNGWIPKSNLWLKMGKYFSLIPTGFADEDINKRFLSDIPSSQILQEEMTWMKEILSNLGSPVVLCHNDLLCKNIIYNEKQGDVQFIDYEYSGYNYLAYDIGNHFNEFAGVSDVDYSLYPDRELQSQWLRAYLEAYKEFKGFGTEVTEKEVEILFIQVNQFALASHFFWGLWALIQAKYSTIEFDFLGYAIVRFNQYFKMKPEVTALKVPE
UniProt Q9Y421: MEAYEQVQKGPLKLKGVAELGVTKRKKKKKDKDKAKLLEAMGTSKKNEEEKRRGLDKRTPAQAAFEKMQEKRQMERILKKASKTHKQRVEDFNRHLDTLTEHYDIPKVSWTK
UniProt Q96K12: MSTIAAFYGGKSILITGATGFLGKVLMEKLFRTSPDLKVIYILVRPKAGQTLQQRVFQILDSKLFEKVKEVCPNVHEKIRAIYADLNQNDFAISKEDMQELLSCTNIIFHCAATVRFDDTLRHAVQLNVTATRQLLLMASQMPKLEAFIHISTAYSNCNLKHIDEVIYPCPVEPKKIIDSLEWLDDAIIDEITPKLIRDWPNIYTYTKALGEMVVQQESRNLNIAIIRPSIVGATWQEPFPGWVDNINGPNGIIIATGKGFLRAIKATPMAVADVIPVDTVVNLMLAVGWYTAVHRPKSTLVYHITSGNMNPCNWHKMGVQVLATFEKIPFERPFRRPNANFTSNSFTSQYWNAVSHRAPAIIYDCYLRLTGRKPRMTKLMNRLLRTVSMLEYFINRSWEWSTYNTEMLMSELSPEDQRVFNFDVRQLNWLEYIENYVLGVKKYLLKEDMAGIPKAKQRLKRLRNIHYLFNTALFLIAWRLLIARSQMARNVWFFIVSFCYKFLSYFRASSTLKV
UniProt Q9BQD7: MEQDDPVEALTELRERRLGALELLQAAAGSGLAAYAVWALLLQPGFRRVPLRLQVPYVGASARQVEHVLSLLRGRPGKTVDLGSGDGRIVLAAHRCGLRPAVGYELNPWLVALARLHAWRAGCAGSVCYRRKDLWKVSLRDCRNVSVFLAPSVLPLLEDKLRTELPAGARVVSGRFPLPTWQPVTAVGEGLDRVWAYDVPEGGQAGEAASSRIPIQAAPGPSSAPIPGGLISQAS
UniProt Q6ICB0: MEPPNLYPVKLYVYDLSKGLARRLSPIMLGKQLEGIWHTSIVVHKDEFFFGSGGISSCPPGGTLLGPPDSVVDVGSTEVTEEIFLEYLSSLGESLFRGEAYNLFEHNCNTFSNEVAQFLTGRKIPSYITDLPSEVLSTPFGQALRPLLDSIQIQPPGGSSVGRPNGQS
UniProt Q9BWH2: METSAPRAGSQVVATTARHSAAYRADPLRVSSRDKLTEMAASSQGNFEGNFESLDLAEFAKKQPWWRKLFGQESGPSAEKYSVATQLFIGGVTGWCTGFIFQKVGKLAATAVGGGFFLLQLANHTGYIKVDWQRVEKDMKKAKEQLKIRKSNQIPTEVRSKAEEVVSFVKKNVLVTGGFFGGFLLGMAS
UniProt P62942, whole entry: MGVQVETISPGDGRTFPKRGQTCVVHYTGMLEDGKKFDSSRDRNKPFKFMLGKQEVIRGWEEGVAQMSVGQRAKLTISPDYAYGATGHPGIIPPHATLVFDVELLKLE
UniProt Q9UN86: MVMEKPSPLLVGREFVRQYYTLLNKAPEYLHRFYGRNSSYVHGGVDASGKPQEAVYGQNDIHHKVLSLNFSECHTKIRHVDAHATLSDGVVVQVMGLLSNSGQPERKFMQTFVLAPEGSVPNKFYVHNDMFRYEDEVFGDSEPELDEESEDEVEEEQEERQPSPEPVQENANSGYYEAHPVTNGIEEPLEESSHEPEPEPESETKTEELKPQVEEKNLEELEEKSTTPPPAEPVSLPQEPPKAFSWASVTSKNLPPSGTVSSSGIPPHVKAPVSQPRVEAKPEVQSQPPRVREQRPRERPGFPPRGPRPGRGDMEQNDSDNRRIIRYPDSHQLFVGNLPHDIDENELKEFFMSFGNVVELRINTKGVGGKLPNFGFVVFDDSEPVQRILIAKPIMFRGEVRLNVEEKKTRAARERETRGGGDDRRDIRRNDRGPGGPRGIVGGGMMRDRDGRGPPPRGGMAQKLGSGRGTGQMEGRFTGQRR
UniProt Q8TB52: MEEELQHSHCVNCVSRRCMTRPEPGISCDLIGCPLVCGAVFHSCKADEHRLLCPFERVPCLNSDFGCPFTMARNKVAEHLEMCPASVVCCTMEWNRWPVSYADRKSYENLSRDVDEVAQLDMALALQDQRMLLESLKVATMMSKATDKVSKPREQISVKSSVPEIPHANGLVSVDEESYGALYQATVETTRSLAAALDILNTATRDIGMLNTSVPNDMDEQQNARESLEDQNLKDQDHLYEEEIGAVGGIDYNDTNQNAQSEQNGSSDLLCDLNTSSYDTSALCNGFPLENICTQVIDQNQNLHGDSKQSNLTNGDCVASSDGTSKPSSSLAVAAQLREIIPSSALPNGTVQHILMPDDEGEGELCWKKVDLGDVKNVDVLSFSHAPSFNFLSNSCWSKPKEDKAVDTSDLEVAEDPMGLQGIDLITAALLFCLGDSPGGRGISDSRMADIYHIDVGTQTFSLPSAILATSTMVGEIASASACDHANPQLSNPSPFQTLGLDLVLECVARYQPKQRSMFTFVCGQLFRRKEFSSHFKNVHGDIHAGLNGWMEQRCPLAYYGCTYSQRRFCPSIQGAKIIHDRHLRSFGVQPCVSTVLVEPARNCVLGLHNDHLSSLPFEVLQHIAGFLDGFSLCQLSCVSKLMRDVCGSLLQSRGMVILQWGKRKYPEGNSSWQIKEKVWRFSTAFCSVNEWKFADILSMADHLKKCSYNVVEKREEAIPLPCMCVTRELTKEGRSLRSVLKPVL

Compound: COc1ccc(Cn2ccc3ccc(C(=O)NO)cc32)cc1
Assay: dose-dependent thermal stabilisation call (2D-TPP, DLPTP, 10% FDR) (binary (1 = stabilised)); higher = stabilised by the compound
Conditions: system: HL-60 intact cells; concentration range 0.04-10 µM

| Target | dose-dependent thermal stabilisation call |
| --- | --- |
| ETV6 (UniProt P41212) | inactive: 0 |
| FAM172A (UniProt Q8WUF8) | inactive: 0 |
| FMNL2 (UniProt Q96PY5) | inactive: 0 |
| EXOSC7 (UniProt Q15024) | inactive: 0 |
| FAM96B (UniProt Q9Y3D0) | inactive: 0 |
| FAM102B (UniProt Q5T8I3) | inactive: 0 |
| EXOSC10 (UniProt Q01780) | inactive: 0 |
| GALT (UniProt P07902) | inactive: 0 |
| FMR1 (UniProt Q06787) | inactive: 0 |
| GALM (UniProt Q96C23) | inactive: 0 |
| GABPA (UniProt Q06546) | inactive: 0 |
| FBXO38 (UniProt Q6PIJ6) | inactive: 0 |
| FBXL11 (UniProt Q9Y2K7) | inactive: 0 |
| FAM49B (UniProt Q9NUQ9) | inactive: 0 |
| FNBP4 (UniProt Q8N3X1) | inactive: 0 |
| ETNK1 (UniProt Q9HBU6) | inactive: 0 |
| FIGNL1 (UniProt Q6PIW4) | inactive: 0 |
| FMNL1 (UniProt O95466) | inactive: 0 |
| FES (UniProt P07332) | inactive: 0 |

| Target | dose-dependent thermal stabilisation call |
| --- | --- |
| FAM50A (UniProt Q14320) | inactive: 0 |
| FAM32A (UniProt Q9Y421) | inactive: 0 |
| FAR2 (UniProt Q96K12) | inactive: 0 |
| FCHO1 (UniProt O14526) | inactive: 0 |
| FAM46C (UniProt Q5VWP2) | inactive: 0 |
| FAM173A (UniProt Q9BQD7) | inactive: 0 |
| GALNS (UniProt P34059) | inactive: 0 |
| FBXO4 (UniProt Q9UKT5) | inactive: 0 |
| FAM152B (UniProt Q6ICB0) | inactive: 0 |
| FUNDC2 (UniProt Q9BWH2) | inactive: 0 |
| FLVCR1 (UniProt Q9Y5Y0) | inactive: 0 |
| FLJ22167 | inactive: 0 |
| FYCO1 (UniProt Q9BQS8) | inactive: 0 |
| EXOC1 (UniProt Q9NV70) | inactive: 0 |
| FKBP1A (UniProt P62942) | inactive: 0 |
| G3BP2 (UniProt Q9UN86) | inactive: 0 |
| FBXO30 (UniProt Q8TB52) | inactive: 0 |
| GALNT2 (UniProt Q10471) | inactive: 0 |

Some values from above:
dose-dependent thermal stabilisation call, FBXO38 (UniProt Q6PIJ6) is entered as inactive: 0
dose-dependent thermal stabilisation call, FYCO1 (UniProt Q9BQS8) is entered as inactive: 0
